Source: US7811609B2, “Use of metal compounds to treat gastrointestinal infections” (priority 2000, dated 2010)
For at least one compound, name, drawing or mass did not settle the structure.

System: Helicobacter pylori
Test: MIC against Helicobacter pylori by two fold serial dilution in growth medium
Assay type: cell-based
Conditions: ligand added to cobalt

Compound: Nc1nc(=O)c2nc(CNc3ccc(C(=O)N[C@@H](CCC(=O)O)C(=O)O)cc3)cnc2[nH]1 [folate, reference compound]
- effect of added ligand on the MIC / action of cobalt against H. pylori: inhibited the action of cobalt against H. pylori
